27 compounds from PubChem BioAssay AID248 (DTP/NCI, 2004) can be followed below.

This experiment deals with L1210 leukemia ip in BDF1 mice, survival T/C. Nature of the experiment: NCI In Vivo Anticancer Drug Screen. Data for tumor model L1210 Leukemia (intraperitoneal) in B6D2F1 (BDF1) mice. Conditions: T/C endpoint: mean survival time, higher T/C = longer survival.
[1] abbreviates: dose: 400.0 mg/kg/injection, schedule: Q04DX003 (ip), vehicle: acetone.
Where [2] appears, read: dose: 200.0 mg/kg/injection, schedule: Q04DX002 (ip), vehicle: Klucel (hydroxypropylcellulose) (HPC).
Where [3] appears, read: dose: 400.0 mg/kg/injection, schedule: Q04DX002 (ip), vehicle: Klucel (hydroxypropylcellulose) (HPC).
The mark [4] stands for this setting: dose: 400.0 mg/kg/injection, schedule: Q04DX003 (ip), vehicle: saline.
Where [5] appears, read: dose: 150.0 mg/kg/injection, schedule: Q01DX001 (ip), vehicle: saline.
Setting [6] is: dose: 200.0 mg/kg/injection, schedule: Q04DX003 (ip), vehicle: saline with Tween-80.
Setting [7] is: dose: 400.0 mg/kg/injection, schedule: Q04DX003 (ip), vehicle: saline with Tween-80.
The mark [8] stands for this setting: dose: 200.0 mg/kg/injection, schedule: Q01DX001 (ip), vehicle: saline.
Setting [9] is: dose: 400.0 mg/kg/injection, schedule: Q01DX001 (ip), vehicle: saline.
The mark [10] stands for this setting: dose: 400.0 mg/kg/injection, schedule: Q01DX009 (ip), vehicle: saline.
The mark [11] stands for this setting: dose: 400.0 mg/kg/injection, schedule: Q04DX003 (ip), vehicle: Klucel (hydroxypropylcellulose) (HPC).
Where [12] appears, read: dose: 100.0 mg/kg/injection, schedule: Q01DX001 (ip), vehicle: saline.

Molecules are shown by their SMILES. The list is a part of this screen's results and no random one: it is rich in T/C values a quarter to a half above the control, in often repeated tests (any T/C) and in doses without a T/C. Other doses and runs of a compound stand elsewhere. T/C is the treated group as % of the vehicle group. Some entries give survivors of the animals treated and no T/C: the source holds a T/C of zero for them, seemingly a mark for toxic or unscored doses. Some doses without a T/C left all or most animals alive at the check, yet need not have been tolerated: the source hardly ever lists a survival T/C far under the control, and the zero likely stands for such cases as well. Survivors were counted at the toxicity check, usually on the fifth day, unless a day is given; later deaths do not show. Schedules are NCI's codes, taken here to give the interval after Q, in days (D) or hours (H), and the number of doses after X. Some schedule codes hold Z or #, which are not explained here. For survival time, the PubChem record calls one and a half times the control and up active, and a quarter to a half above the control has no call in these data; cut-offs in other NCI protocols can differ. Some doses were run more than once; the values are given in rising order.

With `O=C1C(Br)CS(=O)(=O)CC1Br` (centres undefined), the survivor count (dose: 12.5 mg/kg/injection, schedule: Q04DX003 (ip), vehicle: saline) is 6 of 6; the survivor count (dose: 25.0 mg/kg/injection, schedule: Q04DX003 (ip), vehicle: saline) is 6 of 6; the survivor count (dose: 35.0 mg/kg/injection, schedule: Q01DX009 (ip), vehicle: saline) is listed as 5 of 6; the survivor count (dose: 50.0 mg/kg/injection, schedule: Q04DX003 (ip), vehicle: Klucel (hydroxypropylcellulose) (HPC)) is given as 3 of 6; the survivor count (dose: 50.0 mg/kg/injection, schedule: Q04DX003 (ip), vehicle: saline) was 6 of 6; the survivor count (dose: 60.0 mg/kg/injection, schedule: Q01DX001 (ip), vehicle: carboxymethylcellulose (CMC)) is 2 of 6. Also, the survivor count was 2 of 6 (dose: 75.0 mg/kg/injection, schedule: Q01DX001 (ip), vehicle: carboxymethylcellulose (CMC)); 0 of 6 (dose: 150.0 mg/kg/injection, schedule: Q01DX001 (ip), vehicle: carboxymethylcellulose (CMC)); 0 of 6 (dose: 300.0 mg/kg/injection, schedule: Q01DX001 (ip), vehicle: carboxymethylcellulose (CMC)).
`CCN(CC)CCSC(=O)C(O)(c1ccc(C)cc1)c1ccc(C)cc1`: the survivor count (dose: 300.0 mg/kg/injection, schedule: Q01DX001 (ip), vehicle: other) is 0 of 6.
With `CCCCCCCC/C=C\CCCCCCCCOCC(O)CO` (centres undefined), the survivor count runs as follows: (dose: 200.0 mg/kg/injection, schedule: Q01DX009 (ip), vehicle: acetone) 2 of 6; under setting [1], 4 of 6.
Take `CN(CCCl)CC1C(c2ccccc2)C1c1ccccc1` (centres undefined): the survivor count runs as follows: under setting [2], 0 of 3; under setting [3], 0 of 3.
With `Nc1cc(Cl)ccc1N1CCCC1`, the survivor count under setting [4] is given as 3 of 6.
Take `O=C1C(Cl)=C(Cl)C(=O)c2cc(Cl)c(Cl)cc21`: the survivor count (dose: 20.0 mg/kg/injection, schedule: Q01DX001 (ip), vehicle: saline) is 3 of 6; the survivor count (dose: 40.0 mg/kg/injection, schedule: Q01DX001 (ip), vehicle: saline) is listed as 1 of 6; the survivor count (dose: 75.0 mg/kg/injection, schedule: Q01DX001 (ip), vehicle: saline) is reported as 1 of 6; the survivor count under setting [5] is 4 of 6; the survivor count (dose: 300.0 mg/kg/injection, schedule: Q01DX001 (ip), vehicle: saline) is reported as 0 of 6.
As for `CCN(CCNC(=O)Nc1ccccc1OC)c1ccccc1`, the survivor count (dose: 100.0 mg/kg/injection, schedule: Q04DX002 (ip), vehicle: Klucel (hydroxypropylcellulose) (HPC)) is given as 0 of 6; the survivor count under setting [2] was 0 of 6; the survivor count under setting [3] is recorded as 0 of 6.
As for `N#CC1(C#N)C2C=CC(C3C(Cl)C=CC32)C1(C#N)C#N` (centres undefined), the survivor count (dose: 50.0 mg/kg/injection, schedule: Q01DX009 (ip), vehicle: saline with Tween-80) is on record as 3 of 6; the survivor count (dose: 100.0 mg/kg/injection, schedule: Q04DX003 (ip), vehicle: saline with Tween-80) was 6 of 6; the survivor count under setting [6] is on record as 0 of 6; the survivor count under setting [7] is given as 0 of 6.
Turning to `CCCCN1CCN2C(=O)N(CC)CCC2C1` (centres undefined), the survivor count is on record as 0 of 6 under setting [8] and 0 of 6 under setting [9].
In the case of `CN(C)c1ncnc2nsnc12`, the survivor count was 0 of 6 under setting [6] and 0 of 6 under setting [7].
`C=C(C)C(N)=O`: the survivor count under setting [10] is 3 of 6.
On to `CCCCCCCCCCCCCCCCCSc1cccc(C)c1`, for which the survivor count under setting [11] is on record as 6 of 6.
`CCN(CC)CCC#N`: the survivor count under setting [9] is reported as 0 of 4.
`Nc1c2ccccc2cc2ccccc12`: the survivor count under setting [7] was 2 of 6.
With `CC(C)(C)c1cc(C#N)cc(Br)c1O`, the survivor count by setting is: (dose: 200.0 mg/kg/injection, schedule: Q04DX002 (ip), vehicle: saline with Tween-80) 2 of 3; (dose: 400.0 mg/kg/injection, schedule: Q04DX002 (ip), vehicle: saline with Tween-80) 0 of 3.
With `NC(N)=Nc1nc2ccccc2s1`, the survivor count (dose: 100.0 mg/kg/injection, schedule: Q04DX003 (ip), vehicle: Klucel (hydroxypropylcellulose) (HPC)) is given as 4 of 6.
For `O=C(Nc1cc(Cl)c(Oc2ccc(Cl)cc2)cc1S(=O)(=O)O)Nc1cccc(Cl)c1Cl`, under “dose: 200.0 mg/kg/injection, schedule: Q01DX009 (ip), vehicle: Klucel (hydroxypropylcellulose) (HPC)”, the survivor count was 2 of 6.
Consider `CC(C#N)CN1CC1` (centres undefined), for which the survivor count was 3 of 6 (dose: 40.0 mg/kg/injection, schedule: Q01DX001 (ip), vehicle: Klucel (hydroxypropylcellulose) (HPC)); 1 of 6 (dose: 80.0 mg/kg/injection, schedule: Q01DX001 (ip), vehicle: Klucel (hydroxypropylcellulose) (HPC)); 0 of 6 (dose: 100.0 mg/kg/injection, schedule: Q01DX001 (ip), vehicle: Klucel (hydroxypropylcellulose) (HPC)); 0 of 6 (dose: 200.0 mg/kg/injection, schedule: Q01DX001 (ip), vehicle: Klucel (hydroxypropylcellulose) (HPC)); 0 of 6 (dose: 400.0 mg/kg/injection, schedule: Q01DX001 (ip), vehicle: Klucel (hydroxypropylcellulose) (HPC)).
As to `NCCc1ccc(S(=O)(=O)O)cc1[N+](=O)[O-]`, the survivor count (dose: 400.0 mg/kg/injection, schedule: Q01DX009 (ip), vehicle: Klucel (hydroxypropylcellulose) (HPC)) was 6 of 6.
`Nc1nc(N)c2nc(CNc3ccc(C(=O)NC(CC(=O)O)C(=O)O)cc3)cnc2n1` (centres undefined): the T/C is 127 % of control (dose: 6.25 mg/kg/injection, schedule: Q01DX009 (ip), vehicle: saline); 125 % of control (dose: 6.25 mg/kg/injection, schedule: Q01DX Z (ip), vehicle: saline); 130 % of control (dose: 12.5 mg/kg/injection, schedule: Q01DX009 (ip), vehicle: saline); 137 and 144 % of control (dose: 12.5 mg/kg/injection, schedule: Q01DX Z (ip), vehicle: saline); 129 % of control (dose: 50.0 mg/kg/injection, schedule: Q01DX Z (ip), vehicle: saline). In addition, the survivor count (dose: 400.0 mg/kg/injection, schedule: Q01DX Z (ip), vehicle: saline) is given as 0 of 6.
In the case of `CCCOP(=S)(N1CC1)N1CC1`, the survivor count (dose: 5.0 mg/kg/injection, schedule: Q01DX015 (ip), vehicle: saline) is given as 0 of 6; the survivor count (dose: 10.0 mg/kg/injection, schedule: Q01DX015 (ip), vehicle: saline) is listed as 0 of 6; the survivor count (dose: 20.0 mg/kg/injection, schedule: Q01DX015 (ip), vehicle: saline) is 0 of 6; the survivor count (dose: 35.0 mg/kg/injection, schedule: Q01DX015 (ip), vehicle: saline) is 0 of 6; the survivor count (dose: 50.0 mg/kg/injection, schedule: Q01DX001 (ip), vehicle: saline) is recorded as 3 of 4; the survivor count under setting [12] is listed as 1 of 4. Further, the survivor count by setting is: under setting [5], 1 of 4; under setting [8], 2 of 4; under setting [9], 2 of 4. Besides, the T/C (dose: 66.0 mg/kg/injection, schedule: Q01DX001 (ip), vehicle: saline) is 132 % of control and the T/C under setting [12] is 140 % of control.
For `Cc1n[nH]c(=S)n1C`, under setting [4], the survivor count is 0 of 6.
Regarding `COc1ccccc1CN1CCCN(Cc2ccccc2OC)C1c1ccccn1`, under setting [9], the survivor count is 2 of 4.
Take `CC1(C)COC(C)(C)C(=O)O1`: the survivor count under setting [11] is on record as 6 of 6.
On to `O=C(OCC1OC(n2cnc3c(=S)nc[nH]c32)C(OC(=O)c2ccc(Cl)cc2)C1OC(=O)c1ccc(Cl)cc1)c1ccc(Cl)cc1` (centres undefined), for which the T/C by setting is: (dose: 200.0 mg/kg/injection, schedule: Q01DX009 (ip), vehicle: saline) 132 % of control; under setting [10], 148 % of control.
For `C=CCNC(C)=O`, the survivor count under setting [4] is listed as 6 of 6.
As for `COc1ccc(OC=O)cc1OC`, under setting [1], the survivor count is recorded as 3 of 6.
